Test results reported in publication PMC10473220.
No constants are given. Whether binding was seen depends on the method and setting. Binding seen in cells or lysates may run through a third protein. Some binding calls cover weakened binding; strength is not graded here. Sequences can lack the tags named with a protein.

Biological target: T1, Tudor staphylococcal nuclease 2 tagged with GFP (TSN2-GFP) (Arabidopsis thaliana) (UniProt Q9FLT0)
T1 sequence: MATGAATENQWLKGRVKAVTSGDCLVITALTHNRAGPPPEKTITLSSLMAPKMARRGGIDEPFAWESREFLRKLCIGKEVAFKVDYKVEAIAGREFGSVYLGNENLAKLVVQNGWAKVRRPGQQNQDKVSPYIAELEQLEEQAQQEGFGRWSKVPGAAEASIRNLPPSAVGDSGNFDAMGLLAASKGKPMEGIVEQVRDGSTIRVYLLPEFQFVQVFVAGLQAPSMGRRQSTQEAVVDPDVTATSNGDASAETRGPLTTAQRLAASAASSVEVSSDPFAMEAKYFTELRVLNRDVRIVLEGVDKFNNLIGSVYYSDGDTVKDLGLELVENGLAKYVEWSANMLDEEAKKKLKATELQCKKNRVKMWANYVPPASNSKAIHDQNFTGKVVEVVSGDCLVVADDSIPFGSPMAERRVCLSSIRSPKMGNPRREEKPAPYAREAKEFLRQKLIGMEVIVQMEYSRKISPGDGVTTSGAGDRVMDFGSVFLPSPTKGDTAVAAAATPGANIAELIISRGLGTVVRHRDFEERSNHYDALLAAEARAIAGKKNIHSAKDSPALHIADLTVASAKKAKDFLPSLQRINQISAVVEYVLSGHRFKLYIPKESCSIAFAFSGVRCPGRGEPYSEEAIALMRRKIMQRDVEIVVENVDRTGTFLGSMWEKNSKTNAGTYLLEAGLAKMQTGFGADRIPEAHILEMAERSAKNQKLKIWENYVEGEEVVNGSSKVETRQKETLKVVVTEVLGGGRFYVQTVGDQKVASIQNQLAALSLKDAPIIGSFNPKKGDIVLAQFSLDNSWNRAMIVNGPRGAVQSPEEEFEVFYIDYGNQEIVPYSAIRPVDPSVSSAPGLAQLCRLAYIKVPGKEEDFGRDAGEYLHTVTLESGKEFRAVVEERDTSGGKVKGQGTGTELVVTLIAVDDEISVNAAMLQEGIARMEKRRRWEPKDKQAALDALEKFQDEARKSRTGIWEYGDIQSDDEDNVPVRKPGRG
Experiment: co-IP; protein extracts from leaves of 3-wk-old transgenic Arabidopsis co-expressing GFP-TCTP or TSN2-GFP with MC1-RFP; plants kept in control (NS) conditions or heat stressed (HS, 39 °C for 40 min); input and IP fractions immunoblotted with α-GFP or α-RFP

B1: Arabidopsis metacaspase MC1 tagged with RFP (MC1-RFP) (protein, UniProt Q7XJE6 1-367)
chain: MYPPPPSSIYAPPMLVNCSGCRTPLQLPSGARSIRCALCQAVTHIADPRTAPPPQPSSAPSPPPQIHAPPGQLPHPHGRKRAVICGISYRFSRHELKGCINDAKCMRHLLINKFKFSPDSILMLTEEETDPYRIPTKQNMRMALYWLVQGCTAGDSLVFHYSGHGSRQRNYNGDEVDGYDETLCPLDFETQGMIVDDEINATIVRPLPHGVKLHSIIDACHSGTVLDLPFLCRMNRAGQYVWEDHRPRSGLWKGTAGGEAISISGCDDDQTSADTSALSKITSTGAMTFCFIQAIERSAQGTTYGSLLNSMRTTIRNTGNDGGGSGGVVTTVLSMLLTGGSAIGGLRQEPQLTACQTFDVYAKPFTL
binding: binds
